Source: PubChem BioAssay AID540276 (National Center for Advancing Translational Sciences (NCATS), 2011)
Screen size: about 300,000 compounds; about 5,400 (1.8%) were called active. Inconclusive results, whose numbers are uncertain, are shown with a selection of clear calls. The call rests on the fitted dose curve; tested in HEK293 cells. Potencies of inconclusive entries are doubtful fits and often do not repeat.

Assay: qHTS for inhibitors of binding or entry into cells for Marburg Virus
Conditions: Marburg virus pseudotyped entry inhibition, cell reporter; series mostly up to 37.8 µM
Potency means the concentration at half of the fitted maximal effect.

SMILES | Potency
O=C(OCc1ccc([N+](=O)[O-])cc1)c1cc([N+](=O)[O-])ccc1N1CCOCC1 | inactive
CCCCN1C(=O)/C(=C2\SC(N3CCCCC3)=NC2=O)c2ccccc21 | inactive
CCc1c(C(C)S(=O)(=O)c2ccc(C)cc2)[nH]c(=O)n1-c1ccc(OC(F)(F)F)cc1 (stereo not given) | inactive
Cc1ccc(NC(=O)c2cc(-c3cccs3)nc3ccccc23)c(C)c1 | inconclusive: 5.62 µM [inhibitor, single point]
O=C(Nc1ccccc1-c1nc2ccccc2s1)c1ccco1 | inactive
c1cn2cc(CSC3CCCCC3)nc2s1 | inconclusive: 35.5 µM [inhibitor, partial curve, poor fit]
CC1C=CC=CC=CC=CC=CC=CC=CC(OC2OC(C)C(O)C(N)C2O)CC2OC(O)(CC(O)CC(O)C(O)CCC(O)CC(O)CC(=O)OC(C)C(C)C1O)CC(O)C2C(=O)O (stereo not given) | inconclusive: 5.01 µM [inhibitor, full curve, poor fit]
CS(=O)(=O)Nc1ccc(C2=NN(C(=O)c3ccco3)C(c3cccc(F)c3)C2)cc1 (stereo not given) | active: 11.2 µM
C=CCOC(=O)C1=C(C)NC(=S)NC1/C=C/c1ccccc1 (stereo not given) | inactive
CC(COc1cccc2ccccc12)CN1CCN(C)CC1 (stereo not given) | inconclusive: 29.1 µM [inhibitor, single point]
c1ccc(-c2nnc(N3CCOCC3)nc2-c2ccccc2)cc1 | inconclusive: 23.1 µM [inhibitor, single point]
Cc1ccc(NS(=O)(=O)c2cccs2)c(C)c1 | inactive
COc1ccc(OCCn2c(=N)n(CCO)c3ccccc32)cc1 | inconclusive: 35.5 µM [inhibitor, partial curve, poor fit]
COC(=O)[C@H]1[C@H](C(=O)OC)[C@@H](C(=O)OC)N(c2ccc(OC)cc2)[C@@H]1C(=O)OC | inconclusive: 0.891 µM [activator, single point]
Cc1ccc(NC(=O)CN2C(=O)C(c3ccc(F)cc3)=NC2(C)C)c(C)c1 | inactive
O=C(NC(=S)N1CCN(Cc2ccccc2)CC1)c1ccccc1 | inconclusive: 12.6 µM [activator, single point]
O=[N+]([O-])c1ccc(CN2CCCCCC2)s1 | inconclusive: 2.51 µM [activator, partial curve]
O=C(CSc1nc(-c2cccs2)cc(C(F)(F)F)n1)Nc1ccccc1Cl | inconclusive: 3.55 µM [inhibitor, partial curve, poor fit]
CC(C)NC(=O)c1cccc(NC(=O)CC2SC(N3CCCCC3)=NC2=O)c1 (stereo not given) | inconclusive: 0.631 µM [inhibitor, partial curve, poor fit]
O=C(Nc1ccc2nc(SCC(=O)N3CCc4ccccc43)sc2c1)c1ccc(Cl)cc1 | inactive
CCOc1ccc(NC(=S)NCc2nc3ccccc3[nH]2)cc1 | inactive
COc1ccccc1NC(=O)c1c(C)nc2ccccc2c1C(=O)O | inactive
Cc1ccccc1N(CC(=O)NCCc1ccccc1)C(=O)c1ccc(N2CCCC2)nc1 | inconclusive: 6.31 µM [activator, single point]

SMILES | Potency
CCOc1ccc(CN(C)CC(O)COC(c2ccc(OC)cc2)c2ccc(OC)cc2)cc1 (stereo not given) | inconclusive: 10 µM [inhibitor, partial curve, poor fit]
CCNc1oc(-c2cccc3ccccc23)nc1C#N | inactive
Cc1cc(=O)oc2cc(NC(=O)Cc3ccccc3)ccc12 | inconclusive: 11.2 µM [activator, partial curve]
CCCOc1ccc(CNC(=O)c2cc3oc4ccccc4c3n2C)cc1 | inconclusive: 1 µM [inhibitor, full curve, poor fit]
COC(=O)c1cc(C)sc1NC(=O)CN1CCN(C(=O)C2CCCO2)CC1 (stereo not given) | inconclusive: 2.82 µM [inhibitor, single point]
CC(C)CC(OC(=O)c1nsc(Cl)c1Cl)C(=O)NC1CCCC1 (stereo not given) | inactive
O=C(N/N=C/c1ccc(Cl)cc1)C1CC12CCC2 (stereo not given) | inactive
Cc1cc(C)n(CCC(=O)N=Nc2c(O)[nH]c3ccc(Br)cc23)n1 | inconclusive: 7.94 µM [inhibitor, partial curve]
Cc1cc(C)c(C)c(S(=O)(=O)N2CCC(C(=O)NCC(c3ccccc3)N(C)C)CC2)c1C (stereo not given) | inconclusive: 12.6 µM [inhibitor, partial curve, poor fit]
CC(OC(=O)c1cccs1)C(=O)Nc1nc(-c2ccccc2)cs1 (stereo not given) | inactive
O=C(Nc1ccccc1[N+](=O)[O-])c1csnn1 | inactive
COC(=O)c1c(NC(=O)COC(=O)c2ccc(Cl)cc2[N+](=O)[O-])sc2c1CCCCC2 | inconclusive: 35.5 µM [activator, single point]
CCOc1ccc2nc(SC3CC(=O)N(c4cccc(OC)c4)C3=O)sc2c1 (stereo not given) | inconclusive: 2.91 µM [activator, partial curve, poor fit]
Cc1cc(C)c(S(=O)(=O)N2CCN(C(=O)c3c(C)nn(-c4ccccc4)c3Cl)CC2)c(C)c1 | active: 14.1 µM
O=C1C(Cl)=C(NC2CCCCC2)C(=O)N1Cc1ccccc1 | inconclusive: 1.41 µM [activator, partial curve, poor fit]
CC1=NN(c2ccc(C(=O)OC(C)C)cc2)C(=O)/C1=C\C=C\c1ccco1 | inactive
COc1cccc(C2NC(=S)NC(C)=C2C(=O)c2ccccc2)c1OC (stereo not given) | inconclusive: 1.12 µM [inhibitor, full curve, poor fit]
Cc1nc2ccccn2c1C(=O)NNS(=O)(=O)c1ccc(Cl)cc1 | inconclusive: 7.08 µM [inhibitor, partial curve, poor fit]
CCOc1cc(/C=C2/SC(=Nc3ccccc3)N(Cc3cccnc3)C2=O)ccc1OCC#N | inconclusive: 35.5 µM [inhibitor, single point]
COc1cccc(C(=O)Cn2c(NCCO)nc3ccccc32)c1 | inactive
CCn1c(=O)c(C(=O)NNC(=O)c2ccccc2Br)c(O)c2ccccc21 | inconclusive: 35.5 µM [inhibitor, single point]

Shown as tab-separated lines: part of the list above
SMILES	Potency
COc1cccc(C2NC(=S)NC(C)=C2C(=O)c2ccccc2)c1OC (stereo not given)	inconclusive: 1.12 µM [inhibitor, full curve, poor fit]
Cc1nc2ccccn2c1C(=O)NNS(=O)(=O)c1ccc(Cl)cc1	inconclusive: 7.08 µM [inhibitor, partial curve, poor fit]
CCOc1cc(/C=C2/SC(=Nc3ccccc3)N(Cc3cccnc3)C2=O)ccc1OCC#N	inconclusive: 35.5 µM [inhibitor, single point]
